# PubChem BioAssay AID248 (DTP/NCI, 2004)
# The list is a part of this screen's results and no random one: it gathers tests that were run many times, whatever their T/C, doses with no T/C, and many T/C values between a quarter and a half above the control. Further doses and runs are listed elsewhere. T/C: endpoint of the treated group in % of that of the vehicle group. Some doses have a count of surviving animals in place of a T/C: the source holds a T/C of zero for them, seemingly a mark for toxic or unscored doses. Some doses without a T/C left all or most animals alive at the check, yet need not have been tolerated: the source hardly ever lists a survival T/C far under the control, and the zero likely stands for such cases as well. Counts of survivors are from the toxicity check (mostly the fifth day) where no day follows; animals may have died later. Schedules are NCI's codes, read here as Q, the interval in days (D) or hours (H), X, the number of doses. Some schedule codes hold Z or #, which are not explained here. For survival time, this PubChem deposit counts one and a half times the control or more as active, and values a quarter to a half above the control carry no call in these data; other NCI protocols may use other cut-offs. Some entries hold several experiments; their values stand side by side, smallest first. Some T/C values carry the count of animals alive at the toxicity check (mostly the fifth day); where none is given, no animal had died by that day.
# System: L1210 leukemia ip in BDF1 mice, survival T/C
# Assay: NCI In Vivo Anticancer Drug Screen. Data for tumor model L1210 Leukemia (intraperitoneal) in B6D2F1 (BDF1) mice
# Conditions: T/C endpoint: mean survival time, higher T/C = longer survival
# [1] = dose: 100.0 mg/kg/injection, schedule: Q01DX001 (ip), vehicle: saline
# [2] = dose: 200.0 mg/kg/injection, schedule: Q01DX001 (ip), vehicle: saline
# [3] = dose: 400.0 mg/kg/injection, schedule: Q01DX001 (ip), vehicle: saline
# [4] = dose: 50.0 mg/kg/injection, schedule: Q04DX003 (ip), vehicle: Klucel (hydroxypropylcellulose) (HPC)
# [5] = dose: 100.0 mg/kg/injection, schedule: Q04DX003 (ip), vehicle: Klucel (hydroxypropylcellulose) (HPC)
# [6] = dose: 200.0 mg/kg/injection, schedule: Q04DX003 (ip), vehicle: Klucel (hydroxypropylcellulose) (HPC)
# [7] = dose: 400.0 mg/kg/injection, schedule: Q04DX003 (ip), vehicle: Klucel (hydroxypropylcellulose) (HPC)
# [8] = dose: 400.0 mg/kg/injection, schedule: Q04DX003 (ip), vehicle: saline
# [9] = dose: 400.0 mg/kg/injection, schedule: Q04DX003 (ip), vehicle: water
# [10] = dose: 200.0 mg/kg/injection, schedule: Q01DX009 (ip), vehicle: Klucel (hydroxypropylcellulose) (HPC)
# [11] = dose: 25.0 mg/kg/injection, schedule: Q01DX009 (ip), vehicle: Klucel (hydroxypropylcellulose) (HPC)
structure (smiles),measurement,setting,value
C[N+]1(CCCCCNC2=CC(=O)C(NCCCCC[N+]3(C)CCCCC3)=CC2=O)CCCCC1,survivor count,"dose: 0.2 mg/kg/injection, schedule: Q01DX001 (ip), vehicle: saline",0 of 6
same,survivor count,"dose: 0.4 mg/kg/injection, schedule: Q01DX001 (ip), vehicle: saline",1 of 6
same,survivor count,"dose: 0.5 mg/kg/injection, schedule: Q01DX001 (ip), vehicle: saline",1 of 6
same,survivor count,"dose: 0.8 mg/kg/injection, schedule: Q01DX001 (ip), vehicle: saline",0 of 6
same,survivor count,"dose: 1.0 mg/kg/injection, schedule: Q01DX001 (ip), vehicle: saline",0 of 6
same,survivor count,"dose: 2.0 mg/kg/injection, schedule: Q01DX001 (ip), vehicle: saline",0 of 6
same,survivor count,"dose: 4.0 mg/kg/injection, schedule: Q01DX001 (ip), vehicle: saline",0 of 6
same,survivor count,"dose: 5.0 mg/kg/injection, schedule: Q01DX001 (ip), vehicle: saline",0 of 6
same,survivor count,"dose: 8.0 mg/kg/injection, schedule: Q01DX001 (ip), vehicle: saline",0 of 6
same,survivor count,"dose: 10.0 mg/kg/injection, schedule: Q01DX001 (ip), vehicle: saline",0 of 6
same,survivor count,"dose: 20.0 mg/kg/injection, schedule: Q01DX001 (ip), vehicle: saline",0 of 6
same,survivor count,"dose: 40.0 mg/kg/injection, schedule: Q01DX001 (ip), vehicle: saline",0 of 6
same,survivor count,"dose: 80.0 mg/kg/injection, schedule: Q01DX001 (ip), vehicle: saline",0 of 6
same,survivor count,[1],0 of 6
same,survivor count,[2],0 of 6
same,survivor count,[3],0 of 6
CCOC(=O)c1c(-c2ccc([N+](=O)[O-])cc2)c(/C=N\O)n(-c2ccccc2)c1C,survivor count,"dose: 400.0 mg/kg/injection, schedule: Q04DX002 (ip), vehicle: Klucel (hydroxypropylcellulose) (HPC)",3 of 3
c1ccc(CCN2COc3c(ccc4cccnc34)C2)cc1,survivor count,"dose: 200.0 mg/kg/injection, schedule: Q04DX003 (ip), vehicle: saline with Tween-80",2 of 6
O=C(Nc1cccc(C2=NCC(O)CN2)c1)c1ccc(C(=O)Nc2cccc(C3=NCC(O)CN3)c2)c(Cl)c1 (stereo unspecified),survivor count,"dose: 12.5 mg/kg/injection, schedule: Q01DX Z (ip), vehicle: water",2 of 6
same,survivor count,"dose: 25.0 mg/kg/injection, schedule: Q01DX Z (ip), vehicle: water",0 of 6
Cc1ccc(NC(=O)N(CCCl)N=O)cc1C,T/C,"dose: 3.0 mg/kg/injection, schedule: Q01DX001 (ip), vehicle: carboxymethylcellulose (CMC)",126 % of control
same,T/C,"dose: 12.0 mg/kg/injection, schedule: Q01DX001 (ip), vehicle: carboxymethylcellulose (CMC)",147 % of control
same,T/C,"dose: 20.0 mg/kg/injection, schedule: Q01DX009 (ip), vehicle: carboxymethylcellulose (CMC)",139 % of control
same,survivor count,"dose: 29.0 mg/kg/injection, schedule: Q01DX009 (ip), vehicle: carboxymethylcellulose (CMC)",3 of 6
same,survivor count,"dose: 44.0 mg/kg/injection, schedule: Q01DX009 (ip), vehicle: carboxymethylcellulose (CMC)",6 of 6
same,survivor count,"dose: 66.0 mg/kg/injection, schedule: Q01DX009 (ip), vehicle: carboxymethylcellulose (CMC)",4 of 6
same,survivor count,"dose: 100.0 mg/kg/injection, schedule: Q01DX009 (ip), vehicle: carboxymethylcellulose (CMC)",0 of 6
same,survivor count,"dose: 150.0 mg/kg/injection, schedule: Q01DX001 (ip), vehicle: carboxymethylcellulose (CMC)",4 of 6
same,survivor count,"dose: 200.0 mg/kg/injection, schedule: Q01DX001 (ip), vehicle: carboxymethylcellulose (CMC)",1 of 4
same,survivor count,"dose: 400.0 mg/kg/injection, schedule: Q01DX001 (ip), vehicle: carboxymethylcellulose (CMC)",0 of 4
C=CCN(C(=O)C=C)C1CCCCC1,survivor count,[2],2 of 4
same,survivor count,[3],1 of 4
CCC(NC(=O)CCl)C(=O)O (stereo unspecified),survivor count,"dose: 400.0 mg/kg/injection, schedule: Q04DX002 (ip), vehicle: saline",0 of 3
C[CH2][Pb]([CH2]C)([CH2]C)[O][As](=O)(O)c1ccc(N)cc1,survivor count,"dose: 6.0 mg/kg/injection, schedule: Q01DX009 (ip), vehicle: Klucel (hydroxypropylcellulose) (HPC)",4 of 6
same,survivor count,"dose: 12.0 mg/kg/injection, schedule: Q01DX009 (ip), vehicle: Klucel (hydroxypropylcellulose) (HPC)",1 of 6
same,survivor count,"dose: 12.0 mg/kg/injection, schedule: Q04DX003 (ip), vehicle: Klucel (hydroxypropylcellulose) (HPC)",0 of 6
same,survivor count,"dose: 25.0 mg/kg/injection, schedule: Q04DX003 (ip), vehicle: Klucel (hydroxypropylcellulose) (HPC)",0 of 6
same,survivor count,[4],1 of 6
same,survivor count,[5],0 of 6
same,survivor count,[6],0 of 6
same,survivor count,[7],0 of 6
COc1ccc(OC)c(CCN)c1,survivor count,"dose: 200.0 mg/kg/injection, schedule: Q04DX003 (ip), vehicle: saline",0 of 6
same,survivor count,[8],0 of 6
CCCN=C(N)N=C(N)N,survivor count,"dose: 200.0 mg/kg/injection, schedule: Q01DX009 (ip), vehicle: water",0 of 6
same,survivor count,[9],0 of 6
COC(=O)CCNc1c(OC)ccc2ccccc12,survivor count,[10],6 of 6
C/C(=N\N=C(/C)c1cccc(N)c1)c1cccc(N)c1,survivor count,[1],6 of 6
C=C(Cl)CSC(=S)N(CC)CC,survivor count,[8],1 of 6
CCCCCCCCCCCCCCCCSCCCCCCCCCCCCCCCC,survivor count,"dose: 400.0 mg/kg/injection, schedule: Q01DX009 (ip), vehicle: saline with Tween-80",4 of 6
O=c1cc(NCc2ccccc2)[nH]c(=O)[nH]1,survivor count,"dose: 200.0 mg/kg/injection, schedule: Q01DX001 (ip), vehicle: Klucel (hydroxypropylcellulose) (HPC)",5 of 5
O=[N+]([O-])c1ccccc1N=N/C(Cc1ccccc1)=N\Nc1ccccc1,survivor count,[6],6 of 6
Cc1ccc2c(c1)[n+]([O-])c1nc(N)nc(N)c1[n+]2[O-],T/C,"dose: 200.0 mg/kg/injection, schedule: Q04DX002 (ip), vehicle: Klucel (hydroxypropylcellulose) (HPC)",125 and 128 % of control
Cc1nc(C#N)c(C#N)nc1C,survivor count,[11],0 of 6
same,survivor count,[4],0 of 6
same,survivor count,[5],0 of 6
same,survivor count,[6],0 of 6
same,survivor count,[7],0 of 6
O=[N+]([O-])c1csc2ccccc12,survivor count,[10],1 of 6
same,survivor count,"dose: 400.0 mg/kg/injection, schedule: Q01DX009 (ip), vehicle: Klucel (hydroxypropylcellulose) (HPC)",1 of 6
CC1CCC2(C)CCC(C(C)C)C2(O)CC1 (stereo unspecified),survivor count,"dose: 400.0 mg/kg/injection, schedule: Q04DX003 (ip), vehicle: saline sonified",3 of 6
C[n+]1cc2c3ccccc3c(N)cc2c2ccccc21,T/C,"dose: 12.5 mg/kg/injection, schedule: Q01DX009 (ip), vehicle: water",128 % of control [5 of 6 alive]
same,T/C,"dose: 25.0 mg/kg/injection, schedule: Q01DX009 (ip), vehicle: water",131 % of control
same,T/C,"dose: 25.0 mg/kg/injection, schedule: Q04DX003 (ip), vehicle: water",126 % of control
same,survivor count,"dose: 50.0 mg/kg/injection, schedule: Q01DX009 (ip), vehicle: water",4 of 6
same,T/C,"dose: 50.0 mg/kg/injection, schedule: Q04DX003 (ip), vehicle: water",129 % of control [5 of 6 alive]
same,survivor count,"dose: 75.0 mg/kg/injection, schedule: Q01DX009 (ip), vehicle: water",3 of 6
same,survivor count,"dose: 100.0 mg/kg/injection, schedule: Q04DX003 (ip), vehicle: water",5 of 6
same,survivor count,"dose: 200.0 mg/kg/injection, schedule: Q04DX003 (ip), vehicle: water",4 of 6
same,survivor count,[9],1 of 6
Nc1ncc(C=O)c(N)n1,survivor count,[11],2 of 3
Cc1cc(N(CCOS(C)(=O)=O)CCOS(C)(=O)=O)ccc1C=Nc1ccc(-c2csc(-c3ccc(Cl)cc3)n2)cc1,survivor count,"dose: 100.0 mg/kg/injection, schedule: Q01DX009 (ip), vehicle: Klucel (hydroxypropylcellulose) (HPC)",5 of 6
